# Results of single-concentration screens

Sequences of proteins named here, by UniProt entry; tags and fusion partners are left off. Residues count along the entry.
UniProt P9WFT3, whole entry: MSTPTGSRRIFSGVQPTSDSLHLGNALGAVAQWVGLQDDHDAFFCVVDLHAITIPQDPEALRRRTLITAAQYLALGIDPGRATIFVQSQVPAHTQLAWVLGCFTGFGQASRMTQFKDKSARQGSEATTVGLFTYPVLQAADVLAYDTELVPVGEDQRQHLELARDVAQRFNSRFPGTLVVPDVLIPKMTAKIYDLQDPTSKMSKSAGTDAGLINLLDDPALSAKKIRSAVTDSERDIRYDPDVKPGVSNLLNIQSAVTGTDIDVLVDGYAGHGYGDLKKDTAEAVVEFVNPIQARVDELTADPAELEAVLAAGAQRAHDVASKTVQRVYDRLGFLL
UniProt P9WPC5, whole entry: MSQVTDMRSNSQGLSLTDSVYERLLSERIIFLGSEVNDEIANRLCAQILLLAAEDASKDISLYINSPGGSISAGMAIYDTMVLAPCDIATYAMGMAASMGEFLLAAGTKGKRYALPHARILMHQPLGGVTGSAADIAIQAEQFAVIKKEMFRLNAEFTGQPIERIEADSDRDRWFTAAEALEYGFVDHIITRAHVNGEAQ
UniProt P9WPC3, whole entry partner: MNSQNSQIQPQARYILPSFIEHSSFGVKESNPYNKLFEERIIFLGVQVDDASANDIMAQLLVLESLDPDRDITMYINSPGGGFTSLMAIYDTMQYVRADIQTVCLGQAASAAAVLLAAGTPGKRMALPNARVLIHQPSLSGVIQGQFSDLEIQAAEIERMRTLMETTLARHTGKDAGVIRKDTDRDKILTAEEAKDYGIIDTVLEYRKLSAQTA
UniProt Q4DA54, 1-478: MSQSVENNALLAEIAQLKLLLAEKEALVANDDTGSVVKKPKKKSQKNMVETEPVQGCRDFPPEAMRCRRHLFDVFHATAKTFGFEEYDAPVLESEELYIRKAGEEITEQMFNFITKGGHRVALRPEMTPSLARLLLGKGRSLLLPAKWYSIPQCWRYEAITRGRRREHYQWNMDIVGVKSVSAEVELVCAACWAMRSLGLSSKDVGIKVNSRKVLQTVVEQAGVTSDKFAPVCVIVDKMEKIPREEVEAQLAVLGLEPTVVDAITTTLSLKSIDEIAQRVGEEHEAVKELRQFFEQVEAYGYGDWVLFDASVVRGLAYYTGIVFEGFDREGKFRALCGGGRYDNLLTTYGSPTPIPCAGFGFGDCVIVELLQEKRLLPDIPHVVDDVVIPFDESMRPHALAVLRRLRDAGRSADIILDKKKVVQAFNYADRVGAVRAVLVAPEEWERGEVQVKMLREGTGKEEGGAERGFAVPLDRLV

Data taken from ChEMBL document CHEMBL3988442, “University of Dundee, Small-Polar-MMV Screening Library” (2021).

MtTrpRS: 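Enzyme assay of tryptophanyl-tRNA synthetase; the read-out is not stated. Target: Tryptophan-tRNA ligase, Mycobacterium tuberculosis (UniProt P9WFT3). Concentration: 10 µM. Direction is not recorded; retested compounds ran higher, which suggests that high means inhibition. Size under these conditions: about 65,000 compounds, about 64 of them at 50% or above in at least one test.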
ClpP1P2: 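Protease assay of ClpP1P2, read by the AMC dye that it sets free. Target: ClpP1P2, Mycobacterium tuberculosis (UniProt P9WPC5 and UniProt P9WPC3). Compounds at 50 µM. Direction is inferred from only a few compounds that gave an IC50; most scored high, so higher reads as stronger inhibition. Most other retested compounds had strongly negative values. About 69,000 compounds were tested under these conditions; 0.015% (about 10) showed 50% or more at least once.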
TcHisRS: 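Histidine-tRNA ligase, Trypanosoma cruzi CL Brener (UniProt Q4DA54). Enzyme assay of histidyl-tRNA synthetase; the read-out is not stated. Concentration: 30 µM. Higher reads as stronger inhibition (inferred: compounds with an IC50 in retests scored well above the rest). Of about 69,000 compounds tested this way, about 31 (0.045%) reached 50% or more in at least one test.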

Values are the deposited “Percent Effect”, in %.
How 0% and 100% were set is not recorded. Most values in the screen are low, and negative values occur.
This is an unselected part of the compounds tested.

O=C1COC2(CCN(Cc3cccs3)CC2)CN1c1cncnc1 gave MtTrpRS: -1.355%; ClpP1P2: -7.648%; TcHisRS: 8.04%.
O=C(CN1CCCC1c1nc(-c2ccccc2)no1)N1CCOCC1 (centres unmarked) gave MtTrpRS: -1.687%; ClpP1P2: -1.13%; TcHisRS: 9.574%.
Cc1ccc(CNCc2nnc3n2CC(C(F)(F)F)CC3)cc1 (centres unmarked) gave MtTrpRS: 1.676%; ClpP1P2: 11.53%; TcHisRS: -1.695%.
CN(CC(=O)NC1(C)CCS(=O)(=O)C1)Cc1ccc(Br)cc1 (centres unmarked) gave MtTrpRS: 15.32%; ClpP1P2: -4.588%; TcHisRS: 0.565%.
CCc1cnc(N)nc1NCCn1cc(Cl)cn1 gave MtTrpRS: -6.027%; ClpP1P2: 8.216%; TcHisRS: 3.409%.
COCCNc1nc(-c2ccc(S(=O)(=O)N3CCCCCC3)cc2)cs1 gave MtTrpRS: -3.638%; ClpP1P2: -10.48%; TcHisRS: 11.73%.
COc1ccc(-c2nccnc2C2CCN(C(C)=O)CC2)cc1 gave MtTrpRS: -1.589%; ClpP1P2: 12.54%; TcHisRS: 1.622%.
CCc1noc(CC)c1CC(=O)N1CCN(C(C#N)C(C)C)CC1 (centres unmarked) gave MtTrpRS: 0.9909%; ClpP1P2: 0.009243%; TcHisRS: -0.5128%.
Cn1ccnc1CN1CCc2c(COCC3CC3)nn(C)c2C1 gave ClpP1P2: -7.406%; TcHisRS: 6.145%.
CCC1=NC(SCC(=O)c2ccc(Cl)cc2)c2cc(CC)sc2N1 (centres unmarked) gave MtTrpRS: 0.3886%; ClpP1P2: -2.453%; TcHisRS: 4.348%.
CNC(=O)c1cc(-c2ccccc2OC)[nH]n1 gave ClpP1P2: -7.71%; TcHisRS: 0%.
CN(C)C(=O)Cc1ccc(NCc2nccn2C)cc1 gave MtTrpRS: -17.86%; ClpP1P2: 1.608%; TcHisRS: 9.554%.
O=C(Nc1ccc(-c2ccccc2)cc1)N1C[C@@H]2CNC[C@]2(C(=O)O)C1 gave MtTrpRS: -1.699%; ClpP1P2: 3.473%; TcHisRS: 9.195%.
CC(C)Cc1noc(CN2CCCC(CNS(N)(=O)=O)C2)n1 (centres unmarked) gave MtTrpRS: 0.2075%; ClpP1P2: -7.037%; TcHisRS: 9.639%.
Cc1ccsc1CNC(=O)Nc1ccn(CCN2CCOCC2)n1 gave MtTrpRS: -2.107%; ClpP1P2: -6.016%; TcHisRS: -0.9804%.
CNC(=O)c1cccc(CNC(C)c2cc(Cl)ccc2OC)c1 (centres unmarked) gave MtTrpRS: -6.21%; ClpP1P2: -4.17%; TcHisRS: 3.784%.
CCc1nnc(N2C[C@@H](NC(C)=O)[C@H](c3ccc(C)o3)C2)s1 gave MtTrpRS: -0.4442%; ClpP1P2: -1.035%; TcHisRS: 12.14%.
CCCSc1nn(CCN(C)C)c2nc3sc(C)c(CC)c3c(=O)n12 gave MtTrpRS: 2.305%; ClpP1P2: -9.527%; TcHisRS: 8.696%.
CCc1ocnc1C(=O)N1CCN(c2ccc3ccccc3c2)CC1 gave MtTrpRS: -7.932%; ClpP1P2: 9.554%; TcHisRS: 4.721%.
Cn1c(Cn2cccn2)nnc1C1CCN(Cc2cccnc2N)CC1 gave MtTrpRS: -1.137%; ClpP1P2: -10.68%; TcHisRS: 5.691%.
Cc1nc(-c2ccsc2)ccc1C(=O)NCCCN1CCOCC1 gave MtTrpRS: 1.067%; ClpP1P2: -52.89%; TcHisRS: 4.734%.
CS(=O)(=O)Cc1nc(CN2CCc3ccccc3CC2)cs1 gave MtTrpRS: 9.032%; ClpP1P2: -5.923%; TcHisRS: -0.5618%.
Cc1noc(C)c1CCC(=O)N(C)C(C)c1cccs1 (centres unmarked) gave MtTrpRS: -1.802%; ClpP1P2: 10.14%; TcHisRS: 3.867%.
Cc1nc(N)sc1C(=O)N1CCC(C(O)Cc2ccccc2)CC1 (centres unmarked) gave MtTrpRS: 6.265%; ClpP1P2: 1.771%; TcHisRS: 5.473%.
Cc1noc(C)c1S(=O)(=O)N(CC(N)=O)CC(C)C gave MtTrpRS: -0.6224%; ClpP1P2: -1.094%; TcHisRS: 15.66%.
NC(=O)Nc1cccc(C(=O)N(Cc2ccncc2)C2CC2)c1 gave MtTrpRS: -0.1652%; ClpP1P2: 0.4418%; TcHisRS: -31.28%.
Cc1nc(CN2CCC3(C2)CN(C(=O)c2ccc[nH]2)C3)cs1 gave ClpP1P2: -3.143%; TcHisRS: 2.21%.
CC(C)Nc1nc2c(c(NC3CC3)n1)CCN(C1CCOCC1)CC2 gave MtTrpRS: 4.854%; ClpP1P2: 0.7165%; TcHisRS: 1.266%.
CC(C)CC(=O)Nc1ccccc1Oc1ccsc1C(=O)O gave MtTrpRS: -3.717%; ClpP1P2: -12.38%; TcHisRS: 9.375%.
COc1cccc(-c2cc(C(=O)NCCCn3cnnc3)[nH]n2)c1 gave MtTrpRS: 3.577%; ClpP1P2: -4.421%; TcHisRS: 5.941%.
COc1ccc(-n2cc(CNC(=O)c3cscn3)nn2)cc1 gave MtTrpRS: -4.575%; ClpP1P2: -6.509%; TcHisRS: 7.292%.

3 of the entries, repeated:

CNC(=O)c1cc(-c2ccccc2OC)[nH]n1 read ClpP1P2: -7.71%; TcHisRS: 0%.
CCCSc1nn(CCN(C)C)c2nc3sc(C)c(CC)c3c(=O)n12 read MtTrpRS: 2.305%; ClpP1P2: -9.527%; TcHisRS: 8.696%.
COc1ccc(-n2cc(CNC(=O)c3cscn3)nn2)cc1 read MtTrpRS: -4.575%; ClpP1P2: -6.509%; TcHisRS: 7.292%.